# Test results reported in PubChem BioAssay AID1671190 (National Center for Advancing Translational Sciences (NCATS), 2021).
# Sequences of proteins named here, by UniProt entry; tags and fusion partners are left off. A change or cut given only in a name is not applied to a line headed by its entry.
# UniProt P18054: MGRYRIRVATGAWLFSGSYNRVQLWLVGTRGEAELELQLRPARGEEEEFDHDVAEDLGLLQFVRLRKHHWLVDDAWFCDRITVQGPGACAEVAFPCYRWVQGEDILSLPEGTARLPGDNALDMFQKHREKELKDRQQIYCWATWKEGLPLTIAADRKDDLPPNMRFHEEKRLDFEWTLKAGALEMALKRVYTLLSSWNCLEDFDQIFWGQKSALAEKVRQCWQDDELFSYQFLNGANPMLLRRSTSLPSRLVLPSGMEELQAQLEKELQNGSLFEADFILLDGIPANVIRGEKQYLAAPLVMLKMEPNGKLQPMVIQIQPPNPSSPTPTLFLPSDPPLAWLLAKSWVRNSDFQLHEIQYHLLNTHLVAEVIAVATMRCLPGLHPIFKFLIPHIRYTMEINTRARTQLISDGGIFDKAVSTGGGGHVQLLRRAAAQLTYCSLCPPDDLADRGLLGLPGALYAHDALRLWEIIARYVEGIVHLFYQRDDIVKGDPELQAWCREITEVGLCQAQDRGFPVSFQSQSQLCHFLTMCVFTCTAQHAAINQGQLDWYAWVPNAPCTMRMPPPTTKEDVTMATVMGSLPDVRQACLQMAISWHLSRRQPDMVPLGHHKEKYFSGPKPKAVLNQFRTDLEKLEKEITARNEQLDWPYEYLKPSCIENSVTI
# Several values for one entry are separate records, joined by “and”; a condition that tells them apart may be missing. Equal entries are not always repeated. The whole screen tested about 580,000 compounds, of which about 6,100 (1.1%) were called active. The shares of active, inactive and inconclusive entries below differ from those in the screen. The call rests on the fitted dose curve; in most records, active means well fitted inhibition curve with a large enough effect; inconclusive means small, poorly fitted or top-dose-only effect, or another doubt; inactive means no such curve, though single readings can be large or run the other way. Where the call is inconclusive, the potency comes from a doubtful curve fit.
# Biological target: Polyunsaturated fatty acid lipoxygenase ALOX12 (Homo sapiens) (UniProt P18054)
# Experiment: Primary qHTS assay for inhibitors of human arachidonate 12S-lipoxygenase (ALOX12): Round 2
# Conditions: purified 12hLO, xylenol orange hydroperoxide absorbance; series mostly up to 108 µM
# Outline: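 Purified human 12hLO (150 nM final) in 25 mM Hepes, 0.01% Triton X-100, pH 7.0 was preincubated 15 min at room temperature with compound. Then 40 uM arachidonic acid was added, 30 min. Hydroperoxide was read by Fe-XO absorbance ratio 573/405 nm.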
# Potency means the concentration at half of the fitted maximal effect.
row,Structure (SMILES),Potency
1,CN1C(=O)CCC2(CNC(=O)CCc3nc(-c4ccccc4)no3)CCC=C12 (configuration not stated),inactive
2,Cc1ccc(C)c(S(=O)(=O)NC(C)C(=O)NCc2ccccn2)c1 (configuration not stated),"inconclusive: 2.24 µM [inhibitor, partial curve, poor fit]"
3,CCOC(=O)C1=C(C)N=C2SC=C(CC(=O)Nc3ccc(OC)cc3)N2C1c1ccccc1F (configuration not stated),"inconclusive: 8.91 µM [inhibitor, single point]"
4,Cc1cc2oc(=O)cc(CN3CCCC3)c2cc1C,"inconclusive: 44.7 µM [inhibitor, partial curve, poor fit]"
5,CC1=C(C#N)C(=O)NC(=O)/C1=C\c1ccc(-c2ccc(C)cc2[N+](=O)[O-])o1,active: 11.2 µM
6,CN(C)CCCOc1ccc(C(C)(C)c2ccccc2)cc1,"inconclusive: 3.98 µM [inhibitor, full curve, poor fit]"
7,CCN1CCc2nc3sc(C(=O)c4ccc(F)cc4)c(N)c3cc2C1,"inconclusive: 50.1 µM [inhibitor, partial curve, poor fit] and inconclusive: 6.31 µM [inhibitor, partial curve, poor fit]"
8,CNc1cc(-c2ccccc2C(F)(F)F)ncn1,"inconclusive: 3.16 µM [inhibitor, full curve, poor fit]"
9,O=C(c1ccc2c(c1)OCO2)N1CCC(N2Cc3cccn3C2=O)CC1,"inconclusive: 100 µM [inhibitor, partial curve, poor fit]"
10,CCC(c1nnnn1CCOC)N1CCN(Cc2ccccc2OC)CC1 (configuration not stated),"inconclusive: 39.8 µM [inhibitor, partial curve, poor fit]"
11,N[C@@H](Cn1cc(F)c(=O)[nH]c1=O)C(=O)O,"inconclusive: 28.2 µM [inhibitor, single point]"
12,Cc1ccc(-n2c(=O)c3c(c4cc(C)ccc4n3C)n(CC(=O)NCc3ccccc3)c2=O)cc1,"inconclusive: 141 µM [inhibitor, partial curve, poor fit]"
13,O=C(O)C#CC12CC3CC(CC(C3)C1)C2,inactive
14,O=C(Nc1cccc(Cl)c1)ON=C1c2ccccc2-c2ccccc21,"inconclusive: 50.1 µM [inhibitor, partial curve, poor fit]"
15,O=C(Nc1ccc(F)c(F)c1)C1CCN(c2nc3ccccc3o2)CC1,"inconclusive: 2.51 µM [inhibitor, full curve, poor fit]"
16,COc1ccccc1NC(=O)CSc1nc(-c2ccccc2F)nc2cc(=O)[nH]n12,inactive
17,Cc1ccc(C)c(-c2cc3ccccn3c2)c1,"inconclusive: 7.08 µM [inhibitor, full curve, poor fit]"

# Part of the list above, bar-delimited.
row | Structure (SMILES) | Potency
13 | O=C(O)C#CC12CC3CC(CC(C3)C1)C2 | inactive
14 | O=C(Nc1cccc(Cl)c1)ON=C1c2ccccc2-c2ccccc21 | inconclusive: 50.1 µM [inhibitor, partial curve, poor fit]
